Assay results reported in patent publication US20050075292A1.
These are yes or no findings as the source states them, for the method shown. Some results given as binding are weak or reduced against the parent protein; the word gives no strength.

Target: T1, CXCR4 chemokine receptor on the cell surface (human), P61073
T1 chain: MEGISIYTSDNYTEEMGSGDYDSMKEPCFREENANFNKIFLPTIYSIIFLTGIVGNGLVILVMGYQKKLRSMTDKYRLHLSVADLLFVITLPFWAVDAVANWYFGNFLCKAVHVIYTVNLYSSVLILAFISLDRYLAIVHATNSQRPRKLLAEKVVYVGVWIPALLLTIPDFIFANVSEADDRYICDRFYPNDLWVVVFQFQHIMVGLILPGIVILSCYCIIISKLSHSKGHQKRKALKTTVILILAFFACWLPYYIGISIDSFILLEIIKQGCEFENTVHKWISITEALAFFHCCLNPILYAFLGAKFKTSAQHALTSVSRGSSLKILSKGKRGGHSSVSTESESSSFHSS
Assay: confocal microscopy of CEM X4/R5 cells; on paraformaldehyde-fixed cells hBD-2 was found bound to the cell membrane, detected with anti-hBD-2 antibody
Conditions: remark: other sources report otherwise

Question: GIGDPVTCLKSGAICHPVFCPRRYKQIGTCGLPGTKCCKKP [recombinant human beta-defensin-2] was tested. Which binding did it give?
Answer: binds
